Test results from patent publication US20220380374A1, “1,4-DIHYDROBENZO[D]PYRAZOLO[3,4-F][1,3]DIAZEPINE DERIVATIVES AND RELATED COMPOUNDS AS LRRK2, NUAK1 AND/OR TYK2 KINASE MODULATORS FOR THE TREATMENT OF E.G. AUTOIMMUNE DISEASE” (Origenis GMBH, priority 2019, published 2022).
Some of these results come from one statement about several compounds together.

Chains of the proteins cited; added tags and fusions are not shown. Lines headed by an entry give the natural chain unless they say otherwise; changes in a name come on top.
UniProt Q5S007: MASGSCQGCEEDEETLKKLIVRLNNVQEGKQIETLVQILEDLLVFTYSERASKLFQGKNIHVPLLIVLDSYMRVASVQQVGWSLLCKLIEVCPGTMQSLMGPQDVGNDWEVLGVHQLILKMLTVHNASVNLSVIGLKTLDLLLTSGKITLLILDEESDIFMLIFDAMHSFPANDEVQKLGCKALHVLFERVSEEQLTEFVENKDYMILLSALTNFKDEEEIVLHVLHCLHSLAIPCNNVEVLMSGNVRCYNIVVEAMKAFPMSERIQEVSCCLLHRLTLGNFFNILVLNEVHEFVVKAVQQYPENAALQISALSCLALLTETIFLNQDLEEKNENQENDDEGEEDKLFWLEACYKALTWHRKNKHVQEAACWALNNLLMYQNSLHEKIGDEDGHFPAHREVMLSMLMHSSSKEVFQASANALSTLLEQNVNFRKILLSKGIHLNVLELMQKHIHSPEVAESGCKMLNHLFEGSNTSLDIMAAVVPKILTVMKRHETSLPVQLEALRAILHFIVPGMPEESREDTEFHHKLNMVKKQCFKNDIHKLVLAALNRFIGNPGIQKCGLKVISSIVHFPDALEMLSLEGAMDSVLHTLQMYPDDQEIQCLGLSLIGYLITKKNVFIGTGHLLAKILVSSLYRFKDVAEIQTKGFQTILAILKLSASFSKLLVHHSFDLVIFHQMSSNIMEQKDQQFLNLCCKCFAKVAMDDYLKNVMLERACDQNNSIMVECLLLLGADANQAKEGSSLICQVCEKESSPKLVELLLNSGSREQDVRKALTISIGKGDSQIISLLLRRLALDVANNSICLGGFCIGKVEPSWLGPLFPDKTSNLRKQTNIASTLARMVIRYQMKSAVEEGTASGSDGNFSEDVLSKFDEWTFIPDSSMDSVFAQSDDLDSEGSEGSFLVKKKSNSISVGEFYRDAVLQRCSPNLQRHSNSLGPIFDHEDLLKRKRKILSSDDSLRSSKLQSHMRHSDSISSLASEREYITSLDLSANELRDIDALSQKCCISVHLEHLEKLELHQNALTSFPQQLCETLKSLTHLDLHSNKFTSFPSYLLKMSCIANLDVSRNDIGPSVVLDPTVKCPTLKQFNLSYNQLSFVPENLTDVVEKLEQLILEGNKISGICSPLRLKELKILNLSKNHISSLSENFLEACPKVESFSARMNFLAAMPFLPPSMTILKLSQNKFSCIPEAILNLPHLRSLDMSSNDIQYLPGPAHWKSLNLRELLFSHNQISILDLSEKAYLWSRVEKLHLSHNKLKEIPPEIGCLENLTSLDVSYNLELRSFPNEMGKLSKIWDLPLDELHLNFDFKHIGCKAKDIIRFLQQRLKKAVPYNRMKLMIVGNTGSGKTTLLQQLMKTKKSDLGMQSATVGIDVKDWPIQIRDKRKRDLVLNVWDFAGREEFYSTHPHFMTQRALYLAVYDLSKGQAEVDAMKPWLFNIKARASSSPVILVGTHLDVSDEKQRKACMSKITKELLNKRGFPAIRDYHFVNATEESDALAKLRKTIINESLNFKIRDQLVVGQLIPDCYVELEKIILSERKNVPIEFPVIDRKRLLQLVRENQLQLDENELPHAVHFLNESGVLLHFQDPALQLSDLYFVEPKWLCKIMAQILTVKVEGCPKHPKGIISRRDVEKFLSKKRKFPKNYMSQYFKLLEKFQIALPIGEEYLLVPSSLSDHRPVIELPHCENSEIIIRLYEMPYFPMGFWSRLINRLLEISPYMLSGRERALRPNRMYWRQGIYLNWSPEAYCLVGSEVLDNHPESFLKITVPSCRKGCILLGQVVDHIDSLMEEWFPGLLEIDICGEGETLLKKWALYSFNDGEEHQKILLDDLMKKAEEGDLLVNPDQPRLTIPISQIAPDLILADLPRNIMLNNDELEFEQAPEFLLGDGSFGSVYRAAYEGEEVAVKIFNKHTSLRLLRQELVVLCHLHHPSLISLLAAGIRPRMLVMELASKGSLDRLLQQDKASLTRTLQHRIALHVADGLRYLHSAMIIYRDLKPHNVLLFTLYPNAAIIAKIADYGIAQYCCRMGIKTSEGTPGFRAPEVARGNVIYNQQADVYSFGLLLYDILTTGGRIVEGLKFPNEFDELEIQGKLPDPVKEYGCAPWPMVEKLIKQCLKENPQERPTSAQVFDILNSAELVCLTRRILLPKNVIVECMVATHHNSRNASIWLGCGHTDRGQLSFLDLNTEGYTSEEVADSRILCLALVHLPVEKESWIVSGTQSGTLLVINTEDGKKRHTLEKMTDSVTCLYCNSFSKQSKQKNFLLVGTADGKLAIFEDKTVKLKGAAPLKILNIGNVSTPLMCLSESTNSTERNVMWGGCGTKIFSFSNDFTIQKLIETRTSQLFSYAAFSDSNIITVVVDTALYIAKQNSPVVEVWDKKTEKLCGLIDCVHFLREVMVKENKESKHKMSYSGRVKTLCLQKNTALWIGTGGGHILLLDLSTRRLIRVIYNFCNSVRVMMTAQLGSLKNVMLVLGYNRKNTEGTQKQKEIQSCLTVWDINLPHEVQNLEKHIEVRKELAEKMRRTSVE

Molecular target: T1, LRRK2 (Wt) and LRRK2 (G2019) (Homo sapiens, UniProt Q5S007)
T1 construct: fused on or other part: GST tag, inferred from the Eu-Anti-GST antibody used for detection
Assay: TR-FRET LanthaScreen Eu Kinase Binding Assay, LRRK2
Details: one value class stated for wt and G2019 LRRK2 together; 10 nM Kinase Tracer 236; read-out: IC50, inhibitory activity toward LRRK2 (Wt) and LRRK2 (G2019)

Compound	IC50 [µM]
Fc1cccc(F)c1C1=Nc2cn[nH]c2-c2cc(-c3ccc[nH]3)cnc2N1 [Compound 87, 5-(2,6-difluorophenyl)-9-(1H-pyrrol-2-yl)-1,6-dihydropyrazolo[4,3-d]pyrido[3,2-f][1,3]diazepine]	< 0.01
Fc1cccc(Cl)c1C1=Nc2c(Br)n[nH]c2-c2cccnc2N1 [Compound 88]	< 0.01
FC(F)Oc1ccc2c(c1)-c1[nH]ncc1N=C(c1c(Cl)cccc1Cl)N2 [Compound 90, 5-(2,6-dichlorophenyl)-9-(difluoromethoxy)-1,6-dihydrobenzo[d]pyrazolo[3,4-f][1,3]diazepine]	< 0.01
NC(=O)c1ccc2c(c1)-c1[nH]ncc1NC(c1c(F)cccc1F)=N2 [Compound 93, 5-(2,6-difluorophenyl)-1,4-dihydrobenzo[d]pyrazolo[3,4-f][1,3]diazepine-9-carboxamide]	< 0.01
NC(=O)c1ccc2c(c1)-c1[nH]ncc1N=C(c1c(F)cccc1Cl)N2 [Compound 94, 5-(2-chloro-6-fluorophenyl)-1,6-dihydrobenzo[d]pyrazolo[3,4-f][1,3]diazepine-9-carboxamide]	< 0.01
O=C(NC1CCOCC1)c1ccc2c(c1)N=C(c1c(F)cccc1F)Nc1cn[nH]c1-2 [Compound 95, 5-(2,6-difluorophenyl)-N-(tetrahydro-2H-pyran-4-yl)-1,4-dihydrobenzo[d]pyrazolo[3,4-f][1,3]diazepine-8-carboxamide]	< 0.01
O=C(NCCF)c1ccc2c(c1)-c1[nH]ncc1NC(c1c(F)cccc1Cl)=N2 [Compound 97, 5-(2-chloro-6-fluorophenyl)-N-(2-fluoroethyl)-1,4-dihydrobenzo[d]pyrazolo[3,4-f][1,3]diazepine-9-carboxamide]	< 0.01
CC(C)(O)c1ccc2c(c1)NC(c1c(F)cccc1F)=Nc1cn[nH]c1-2 [Compound 98, 2-(5-(2,6-difluorophenyl)-1,6-dihydrobenzo[d]pyrazolo[3,4-f][1,3]diazepin-8-yl)propan-2-ol]	< 0.01
O=C(NCCF)c1ccc2c(c1)-c1[nH]ncc1NC(c1c(F)cccc1F)=N2 [Compound 101, 5-(2,6-difluorophenyl)-N-(2-fluoroethyl)-1,4-dihydrobenzo[d]pyrazolo[3,4-f][1,3]diazepine-9-carboxamide]	< 0.01
Fc1cccc(F)c1C1=Nc2cn[nH]c2-c2cc(OC3CCOCC3)ccc2N1 [Compound 102, 5-(2,6-difluorophenyl)-9-((tetrahydro-2H-pyran-4-yl)oxy)-1,6-dihydrobenzo[d]pyrazolo[3,4-f][1,3]diazepine]	< 0.01
Nc1ccc2c(c1)-c1[nH]ncc1N=C(c1c(F)cccc1F)N2 [Compound 103, 5-(2,6-difluorophenyl)-1,6-dihydrobenzo[d]pyrazolo[3,4-f][1,3]diazepin-9-amine]	< 0.01
O=C(NCCF)c1cc2c(cn1)NC(c1c(F)cccc1F)=Nc1cn[nH]c1-2 [Compound 112, 5-(2,6-difluorophenyl)-N-(2-fluoroethyl)-1,6-dihydropyrazolo[4,3-d]pyrido[4,3-f][1,3]diazepine-9-carboxamide]	< 0.01
Fc1cccc(F)c1C1=Nc2ccc(N3CCOCC3)cc2-c2[nH]ncc2N1 [Compound 117, 4-(5-(2,6-difluorophenyl)-1,4-dihydrobenzo[d]pyrazolo[3,4-f][1,3]diazepin-9-yl)morpholine]	< 0.01
Fc1cccc(Cl)c1C1=Nc2cn[nH]c2-c2cc(C3=CCOCC3)cnc2N1 [Compound 120, 5-(2-chloro-6-fluorophenyl)-9-(3,6-dihydro-2H-pyran-4-yl)-1,6-dihydropyrazolo[4,3-d]pyrido[3,2-f][1,3]diazepine]	< 0.01
O=[N+]([O-])c1cccc(F)c1C1=Nc2cn[nH]c2-c2cc(C3=CCOCC3)cnc2N1 [Compound 123, 9-(3,6-dihydro-2H-pyran-4-yl)-5-(2-fluoro-6-nitrophenyl)-1,6-dihydropyrazolo[4,3-d]pyrido[3,2-f][1,3]diazepine]	< 0.01
Cc1ccc2c(c1)-c1[nH]ncc1N=C(c1c(F)cccc1[N+](=O)[O-])N2 [Compound 125, 5-(2-fluoro-6-nitrophenyl)-9-methyl-1,6-dihydrobenzo[d]pyrazolo[3,4-f][1,3]diazepine]	< 0.01
Cc1ccc2c(c1)-c1[nH]ncc1N=C(c1c(F)cc(NCCF)cc1F)N2 [Compound 126, 3,5-difluoro-N-(2-fluoroethyl)-4-(9-methyl-1,6-dihydrobenzo[d]pyrazolo[3,4-f][1,3]diazepin-5-yl)aniline]	< 0.01
COc1cc2c(cn1)NC(c1c(F)cccc1F)=Nc1cn[nH]c1-2 [Compound 127, 5-(2,6-difluorophenyl)-9-methoxy-1,6-dihydropyrazolo[4,3-d]pyrido[4,3-f][1,3]diazepine]	< 0.01
FCCN1CC=C(c2cnc3c(c2)-c2[nH]ncc2N=C(c2c(F)cccc2F)N3)CC1 [Compound 128, 5-(2,6-difluorophenyl)-9-(1-(2-fluoroethyl)-1,2,3,6-tetrahydropyridin-4-yl)-1,6-dihydropyrazolo[4,3-d]pyrido[3,2-f][1,3]diazepine]	< 0.01
OCCN1CC=C(c2cnc3c(c2)-c2[nH]ncc2N=C(c2c(F)cccc2F)N3)CC1 [Compound 132, 2-(4-(5-(2,6-difluorophenyl)-1,6-dihydropyrazolo[4,3-d]pyrido[3,2-f][1,3]diazepin-9-yl)-5,6-dihydropyridin-1(2H)-yl)ethan-1-ol]	< 0.01
Fc1cccc(F)c1C1=Nc2ccc(C3=CCOCC3)cc2-c2[nH]ncc2N1 [Compound 133, 5-(2,6-difluorophenyl)-9-(3,6-dihydro-2H-pyran-4-yl)-1,4-dihydrobenzo[d]pyrazolo[3,4-f][1,3]diazepine]	< 0.01
Fc1cccc(F)c1C1=Nc2ccccc2-c2[nH]nc(Cl)c2N1 [Compound 135, 3-chloro-5-(2,6-difluorophenyl)-1,4-dihydrobenzo[d]pyrazolo[3,4-f][1,3]diazepine]	< 0.01
Cc1cc(F)c2c(c1)-c1[nH]ncc1NC(c1c(F)cccc1F)=N2 [Compound 138, 5-(2,6-difluorophenyl)-7-fluoro-9-methyl-1,4-dihydrobenzo [d]pyrazolo[3,4-f][1,3]diazepine]	< 0.01
CC(C)c1ccc2c(c1)-c1[nH]ncc1N=C(c1c(F)cccc1F)N2 [Compound 139, 5-(2,6-difluorophenyl)-9-isopropyl-1,6-dihydrobenzo[d]pyrazolo[3,4-f][1,3]diazepine]	< 0.01
NC(=O)c1cnc2c(c1)-c1[nH]ncc1N=C(c1c(F)cccc1F)N2 [Compound 140, 5-(2,6-difluorophenyl)-1,6-dihydropyrazolo[4,3-d]pyrido[3,2-f][1,3]diazepine-9-carboxamide]	< 0.01
CN1CCN(c2ccc3c(c2)-c2[nH]ncc2NC(c2c(F)cccc2F)=N3)C1=O [Compound 141, 1-(5-(2,6-difluorophenyl)-1,4-dihydrobenzo[d]pyrazolo[3,4-f][1,3]diazepin-9-yl)-3-methylimidazolidin-2-one]	< 0.01
Cc1ccc2c(c1)-c1[nH]nc(Cl)c1NC(c1c(F)cccc1F)=N2 [Compound 143, 3-chloro-5-(2,6-difluorophenyl)-9-methyl-1,4-dihydrobenzo[d]pyrazolo [3,4-f][1,3]diazepine]	< 0.01
CSc1n[nH]c2c1NC(c1c(F)cccc1F)=Nc1ccc(C)cc1-2 [Compound 145, 5-(2,6-difluorophenyl)-9-methyl-3-(methylthio)-1,4-dihydrobenzo[d]pyrazolo[3,4-f][1,3]diazepine]	< 0.01
